The values that follow are results of earlier work, collected in patent US10111955B2, “PEG derivative” (priority 2014, dated 2018).

Molecules are shown by their SMILES.

For the data set the following is noted: general statement on the known drug; cited from earlier work.

For `CC(=O)O[C@H]1C(=O)[C@@]2(C)[C@H]([C@H](OC(=O)c3ccccc3)[C@]3(O)C[C@H](OC(=O)[C@H](O)[C@@H](NC(=O)c4ccccc4)c4ccccc4)C(C)=C1C3(C)C)[C@]1(OC(C)=O)CO[C@@H]1C[C@@H]2O` [Paclitaxel, paclitaxel], the water-solubility entry is reported as “sparingly soluble in water”.
